{"source": "patent US6875761B2", "about": "(Eisai Co., Ltd., priority 1997, dated 2005)", "biological_target": "α1 adrenalin receptor", "experiment": "Binding test on [3H] prazosin, cerebral cortex receptor fraction", "parameters": "species or system SD rats", "details": "rat cerebral cortex receptor fraction, about 0.2 nM [3H] prazosin, room temperature 60 min; read-out: α 1", "note": "Structures can show the parent of a compound that is named as a salt. For at least one compound, name, drawing or mass did not settle the structure."}
{"smiles": "CCN1CCN(c2nc(C#Cc3ccc(OC)cc3OC)cc3ccccc23)CC1", "note": "[Example 185, 1-(1-Ethylpiperazin-4-Yl)-3-(2,4-Dimethoxyphenylethynyl)Isoquinoline Dihydrochloride]", "values": [{"measurement": "Ki", "result": 741, "unit": "nM"}]}
